Measurements reported in PubChem BioAssay AID720504 (National Center for Advancing Translational Sciences (NCATS), 2013).
About 10,000 (2.8%) of roughly 360,000 compounds were called active. The shares of active, inactive and inconclusive entries below differ from those in the screen. Calls follow the shape of the dose curve; as a rule, active = well fitted inhibition curve with a large enough effect; inconclusive = small, poorly fitted or top-dose-only effect; inactive = flat fitted curve, though single readings scatter. Potencies beside an inconclusive call are fits to weak or partial responses and may not hold up.
% is scaled to controls: 0 for no effect and ±100 for the full control effect; potency is read from the fitted curve at half-maximal effect.
Also: nearly all actives have a fitted effect of over 65% in size.
For max response, negative = inhibition in this document: series mostly up to about 57 µM.

Protein sequences, listed by entry. Tags and fused reporters are not part of them.
UniProt P53350, whole entry, looked up: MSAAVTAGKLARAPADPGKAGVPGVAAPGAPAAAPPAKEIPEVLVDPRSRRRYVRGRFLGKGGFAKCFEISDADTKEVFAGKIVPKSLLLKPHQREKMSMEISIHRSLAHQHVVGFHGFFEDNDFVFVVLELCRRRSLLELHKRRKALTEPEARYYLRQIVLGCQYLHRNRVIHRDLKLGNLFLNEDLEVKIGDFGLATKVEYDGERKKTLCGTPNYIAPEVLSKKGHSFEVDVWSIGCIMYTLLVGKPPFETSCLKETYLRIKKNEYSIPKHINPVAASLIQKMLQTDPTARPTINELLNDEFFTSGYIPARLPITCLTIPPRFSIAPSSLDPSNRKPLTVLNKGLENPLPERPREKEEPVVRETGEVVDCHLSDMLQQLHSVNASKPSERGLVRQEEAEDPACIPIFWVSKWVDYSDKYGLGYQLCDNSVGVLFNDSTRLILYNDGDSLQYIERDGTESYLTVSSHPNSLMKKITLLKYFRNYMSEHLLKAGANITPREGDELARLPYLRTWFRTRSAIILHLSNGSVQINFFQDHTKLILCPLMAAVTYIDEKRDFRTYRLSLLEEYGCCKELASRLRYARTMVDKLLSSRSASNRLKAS

The compounds below were run against Serine/threonine-protein kinase PLK1 (Homo sapiens) (UniProt P53350) (assay: qHTS for Inhibitors of PLK1-PDB (polo-like kinase 1 - polo-box domain): Primary Screen). Conditions: Plk1 PBD binding of FITC phosphopeptide, fluorescence polarization.
For O=C(COC(=O)CCC(=O)c1cccs1)Nc1ccc(F)c(F)c1F, the max response, negative = inhibition was inactive: -2.97%. In the case of COc1ccc(-c2csc3nc(-c4cccnc4)nc(Cl)c23)cc1OC, the Potency is reported as active: 26.7 µM. For CC1CCc2c(nc3ncnn3c2NCCN(C)C)C1 (stereo not given), the Potency was inconclusive: 26.7 µM [inhibitor, single point]. For O=C(N/N=C/c1cc([N+](=O)[O-])cc([N+](=O)[O-])c1O)/C(=C\c1cccs1)NC(=O)c1ccccc1, the max response, negative = inhibition was inactive: -24.5%. CC(C)[C@H](NC(=O)c1ccccc1Cl)C(=O)OCC(=O)Nc1ccc(S(=O)(=O)N2CCOCC2)cc1 was tested, and the Potency was inconclusive: 26.7 µM [inhibitor, partial curve]. With Cc1ccc2[nH]cc(CCCN3C(=O)c4ccccc4C3=O)c2c1 the Potency was active: 29.9 µM. For COc1ccc(N=Cc2cc(Cc3ccccc3Cl)cc([N+](=O)[O-])c2O)cc1OC, the Potency was inconclusive: 29.9 µM [inhibitor, partial curve]. For CCOc1ccc(C(=S)N2CCOCC2)cc1OCC, the Potency was inconclusive: 26.7 µM [inhibitor, partial curve]. With Fc1ccccc1Cn1nnc2c(-n3ccnc3)ncnc21 the Potency was active: 23.8 µM. For CCOCCCNC(=O)c1ccc(N2CCOCC2)c(NS(=O)(=O)c2ccc(OC)cc2)c1, the Potency was inconclusive: 26.7 µM [inhibitor, single point]. For CS(=O)(=O)c1sc(C#N)c2c1C(=O)CC(c1ccccc1)C2 (stereo not given), the Potency was active: 5.32 µM. COc1ccccc1NC(=S)N(CCCN1CCOCC1)Cc1cn(C)c2ccccc12 was tested, and the Potency was inconclusive: 18.9 µM [inhibitor, partial curve, poor fit]. In the case of O=S(=O)(c1ccc(SCc2ccccc2)nc1)N1CCCC1, the max response, negative = inhibition is reported as inactive: -1.19%. With Cc1cc(C)nc(N/N=C/c2ccccc2Cl)n1 the max response, negative = inhibition was inactive: 1.26%. For NC(=O)c1c(/N=C/c2cccs2)sc2c1CCCC2, the Potency was inconclusive: 26.7 µM [inhibitor, partial curve]. COc1cc(C2Nc3cccc4cccc(c34)N2)cc(OC)c1O was tested, and the Potency was inconclusive: 29.9 µM [inhibitor, single point]. With O=[N+]([O-])c1cccc(C=NNc2ccccc2)c1 the max response, negative = inhibition was inactive: -5.78%. O=C(Nc1ccccc1N1CCN(C(=O)c2ccc(Cl)cc2)CC1)c1cc2ccccc2o1 was tested, and the Potency was active: 29.9 µM. In the case of CCOc1ccc(C(=O)N2CCCN(C(=O)c3ccc(OCC)cc3)CC2)cc1, the Potency is reported as inconclusive: 37.7 µM [inhibitor, single point]. In the case of NC(=O)c1c(NC(=S)Nc2ccc(F)cc2)sc2c1CCCC2, the Potency is reported as inconclusive: 21.2 µM [inhibitor, single point].
